No constants are given. Whether binding was seen depends on the method and setting.
Tests used:
[1] = target: T1, mouse DR with death domain deletion on ExpiCHO-S cells (mouse (Mus musculus)); assay: flow cytometry on ExpiCHO-S cells transiently expressing mouse DR (death domain deleted), gMFI PE; concentration of the bars not given
T1 sequence: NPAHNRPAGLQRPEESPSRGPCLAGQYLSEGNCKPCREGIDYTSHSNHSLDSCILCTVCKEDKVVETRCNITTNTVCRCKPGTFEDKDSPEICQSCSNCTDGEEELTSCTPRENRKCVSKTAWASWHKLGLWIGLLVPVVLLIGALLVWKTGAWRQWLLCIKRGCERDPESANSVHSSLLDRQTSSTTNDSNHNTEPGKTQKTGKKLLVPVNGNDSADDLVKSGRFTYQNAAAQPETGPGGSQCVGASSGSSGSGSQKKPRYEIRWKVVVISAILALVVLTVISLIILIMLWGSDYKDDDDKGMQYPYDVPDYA

[2] = target: T2, rabbit DR4 with death domain deletion on ExpiCHO-S cells (rabbit (Oryctolagus cuniculus)); assay: flow cytometry, ExpiCHO-S cells expressing rabbit DR4
T2 sequence: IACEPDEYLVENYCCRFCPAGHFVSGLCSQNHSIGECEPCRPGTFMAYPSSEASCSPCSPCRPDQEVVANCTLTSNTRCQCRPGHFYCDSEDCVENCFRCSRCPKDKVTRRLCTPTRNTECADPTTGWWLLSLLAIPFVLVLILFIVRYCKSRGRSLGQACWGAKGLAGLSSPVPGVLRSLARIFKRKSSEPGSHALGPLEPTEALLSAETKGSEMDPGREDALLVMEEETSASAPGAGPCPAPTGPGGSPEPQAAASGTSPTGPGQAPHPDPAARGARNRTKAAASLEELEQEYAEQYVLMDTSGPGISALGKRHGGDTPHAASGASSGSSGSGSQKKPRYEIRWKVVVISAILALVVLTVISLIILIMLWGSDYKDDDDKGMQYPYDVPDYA

[3] = target: T1, mouse DR with death domain deletion on ExpiCHO-S cells (mouse (Mus musculus)); assay: flow cytometry, ExpiCHO-S cells expressing mouse DR
[4] = target: T3, pig DR4 with death domain deletion on ExpiCHO-S cells (pig (Sus scrofa)); assay: flow cytometry on ExpiCHO-S cells transiently expressing pig DR4 (death domain deleted), gMFI PE; concentration of the bars not given
T3 sequence: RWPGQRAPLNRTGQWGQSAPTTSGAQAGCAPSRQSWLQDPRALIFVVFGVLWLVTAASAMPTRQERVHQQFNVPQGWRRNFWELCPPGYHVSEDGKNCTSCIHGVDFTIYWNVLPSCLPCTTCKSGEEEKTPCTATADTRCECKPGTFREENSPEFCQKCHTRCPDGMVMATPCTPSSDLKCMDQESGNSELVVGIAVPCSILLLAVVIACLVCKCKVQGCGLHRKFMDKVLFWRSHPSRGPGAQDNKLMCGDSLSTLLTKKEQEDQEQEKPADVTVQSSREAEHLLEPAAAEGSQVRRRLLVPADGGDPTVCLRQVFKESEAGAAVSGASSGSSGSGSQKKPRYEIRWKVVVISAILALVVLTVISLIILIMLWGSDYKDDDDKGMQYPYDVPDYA

[5] = target: T4, dog DR4 with death domain deletion on ExpiCHO-S cells (dog (Canis familiaris)); assay: flow cytometry on ExpiCHO-S cells transiently expressing dog DR4 (death domain deleted), gMFI PE; concentration of the bars not given
T4 sequence: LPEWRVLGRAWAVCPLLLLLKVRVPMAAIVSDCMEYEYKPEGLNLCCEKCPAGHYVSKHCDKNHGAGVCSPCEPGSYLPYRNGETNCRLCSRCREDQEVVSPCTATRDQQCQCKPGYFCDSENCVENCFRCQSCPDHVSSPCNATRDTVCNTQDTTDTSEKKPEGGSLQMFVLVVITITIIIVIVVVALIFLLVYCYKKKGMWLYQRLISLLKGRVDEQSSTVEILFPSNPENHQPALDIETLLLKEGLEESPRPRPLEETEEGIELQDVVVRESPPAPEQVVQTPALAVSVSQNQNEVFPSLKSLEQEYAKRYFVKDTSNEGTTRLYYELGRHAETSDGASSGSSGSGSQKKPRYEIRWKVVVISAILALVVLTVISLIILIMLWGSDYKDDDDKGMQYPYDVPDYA

[6] = target: T3, pig DR4 with death domain deletion on ExpiCHO-S cells (pig (Sus scrofa)); assay: flow cytometry, ExpiCHO-S cells expressing pig DR4
[7] = target: T4, dog DR4 with death domain deletion on ExpiCHO-S cells (dog (Canis familiaris)); assay: flow cytometry, ExpiCHO-S cells expressing dog DR4
[8] = target: T2, rabbit DR4 with death domain deletion on ExpiCHO-S cells (rabbit (Oryctolagus cuniculus)); assay: flow cytometry on ExpiCHO-S cells transiently expressing rabbit DR4 (death domain deleted), gMFI PE; concentration of the bars not given

B1: IgG1-DR4-FERR (antibody, V domains shown)
VH: QVQLQESGPGLVKPSGTLSLTCAVSGGSISSYSWWSWIRQPPGKGLEWIGELYHSGSTNYNPSLKSRVTISVDKSKNQFSLKLRSVTAADTAVYYCVRGVATIDYWGQGTLVTVSS
VL: QSALTQPPSASGSPGQSVTISCTGTSSDVGGYNFVSWYQQDPGKAPKLLIYEVTKRPSGVPDRFSGSKSGNTASLTVSGLQAEDEADYYCSSYAGSNNVMFGGGTKLTVLG
[1]
  binding: no binding
[2]
  binding: no binding (tested: 30 µg/mL)
[3]
  binding: no binding (tested: 30 µg/mL)
[4]
  binding: no binding
[5]
  binding: no binding
[6]
  binding: no binding (tested: 30 µg/mL)
[7]
  binding: no binding (tested: 30 µg/mL)
[8]
  binding: no binding
